Reference: article PMC7862700
The list shows a part of the results. The exact form of the protein is not confirmed.

These sequences were tested against T1, ETS1 (UniProt P14921) (assay: DAPPL (digital affinity profiling via proximity ligation, sequencing)). Conditions: 10 mM Tris-HCl pH 7.5, 50 mM NaCl, 1 mM DTT, 4% glycerol, room temperature, 30 min; GST-TFs on glutathione beads, 16-mer random dsDNA library, 0.1% …; high values mean tight binding; double strand, one strand shown; scale: fold enrichment (6-mer frequency, TF over GST control).
T1 sequence: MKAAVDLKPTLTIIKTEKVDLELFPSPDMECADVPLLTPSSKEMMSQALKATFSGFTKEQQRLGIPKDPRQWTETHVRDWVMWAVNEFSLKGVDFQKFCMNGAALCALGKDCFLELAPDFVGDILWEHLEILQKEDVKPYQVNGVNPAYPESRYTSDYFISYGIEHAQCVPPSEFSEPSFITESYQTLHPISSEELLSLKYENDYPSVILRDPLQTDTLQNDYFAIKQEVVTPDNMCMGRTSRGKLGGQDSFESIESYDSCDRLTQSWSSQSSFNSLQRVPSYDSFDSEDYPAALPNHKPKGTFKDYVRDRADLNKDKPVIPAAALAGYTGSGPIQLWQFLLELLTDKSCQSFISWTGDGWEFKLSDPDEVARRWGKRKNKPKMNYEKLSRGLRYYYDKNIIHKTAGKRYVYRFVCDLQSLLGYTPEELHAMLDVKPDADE

Row | Sequence | binding signal
1 | AAACAT | 1.47
2 | ACCCTA | 1.3
3 | CATCTG | 1.25
4 | CCCGCC | 1.44
5 | GTTCTT | 1.23
6 | GGTTTC | 1.53
7 | TCCTAC | 1.47
8 | TTTTTA | 1.44
9 | AAACCC | 1.39
10 | CACTCG | 1.17
11 | TACTGA | 1.2
12 | TTTACA | 1.28
13 | TCTCGC | 1.63
14 | TAGTAC | 1.17
15 | TTAATT | 1.43
16 | CGCTTT | 1.14
17 | AAAGCG | 1.13
18 | TACTGG | 1.24
19 | CTGCCA | 1.05
20 | TACGTA | 1.38

From no. 1 to 12, as listed above:
Row | Sequence | binding signal
1 | AAACAT | 1.47
2 | ACCCTA | 1.3
3 | CATCTG | 1.25
4 | CCCGCC | 1.44
5 | GTTCTT | 1.23
6 | GGTTTC | 1.53
7 | TCCTAC | 1.47
8 | TTTTTA | 1.44
9 | AAACCC | 1.39
10 | CACTCG | 1.17
11 | TACTGA | 1.2
12 | TTTACA | 1.28

Later entries:

Row | Sequence | binding signal
21 | ATACCA | 1.05
22 | GCCAAT | 1.06
23 | GCTTCA | 1.28
24 | TTGCCG | 1.07
25 | AGCCCT | 1.2
26 | CTTCAA | 1.38
27 | ATGTCC | 1.54
28 | AATGCC | 1.15
29 | CGGCTT | 1.24
30 | TATCTC | 1.27
31 | TTCAAG | 1.33
32 | TGTACT | 1.26
33 | CTGCAC | 1.14
34 | AATCAA | 1.15
35 | TACTTT | 1.45
36 | CGCCGA | 1.24
37 | TTCGTA | 1.4
38 | CCCTCG | 1.33
39 | CTTGGA | 1.14
